23 compounds from PubChem BioAssay AID2810 (NMMLSC, 2010) can be followed below.

This is one part of the list. Shown are side measurements of this screen, not its main read-out; they come without a call.

The nature of this assay: modulators of CD8 T cell-vesicle binding, confirmation, cherry-picked primary hits, two concentrations (AID 2810).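 As to all read-outs here: lower values mean blocking of vesicle binding.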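 As to percent response (vesicle binding): ratio of mean FL2 vesicle stain of CD8+ cells to that row's control.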 The following applies: 2C CD8+ T cell-vesicle binding, flow cytometry; for double positive events: CD8+/vesicle+ events. (In flow cytometry, cells or beads pass a laser one at a time.)
[1] abbreviates: at 15.4 µM, stronger effect = lower value.

Consider `O=C1CCCC/C=C\C[C@H](CC(=O)N(CCO)Cc2ccccc2)C(=O)N[C@@H](c2ccccc2)CO1`, for which the double positive events by setting is: (at 7.7 µM) 11%; under setting [1], 27.5%. Under “at 7.7 µM”, the percent response (vesicle binding) was 121%.

Where the note is “at 7.7 µM”, `CC(C)C(=O)Nc1ccc(NC(=O)c2ccco2)cn1` came in with a double positive events of 9% and a percent response (vesicle binding) of 357%. The double positive events under setting [1] is 24.2%.

As to `Oc1ccc(Cl)cc1C=NCCc1ccccc1`, under “at 7.7 µM”, the double positive events is 32.5% and the percent response (vesicle binding) is 103%. This compound also gave a double positive events under setting [1] of 9.6%.

For the setting “at 7.7 µM”, `O=C(NNc1nc(-c2ccccc2)c2cc(Br)ccc2n1)c1ccc(S(=O)(=O)N2CCOCC2)cc1` returned a double positive events of 16.4% and a percent response (vesicle binding) of 218%. The compound also had a double positive events under setting [1] of 31.8%.

Take `O=C(Cc1c(Cl)cccc1Cl)Nc1cccc(S(=O)(=O)N2CCOCC2)c1`: the double positive events (at 7.7 µM) was 24.9% and the double positive events under setting [1] amounted to 18.9%. This compound yielded a percent response (vesicle binding) (at 7.7 µM) of 337%.

With `Cc1ccc(NC(=O)NNC(=O)C2CCN(Cc3ccc(F)cc3Cl)CC2)cc1`, where the note is “at 7.7 µM”, the double positive events was found to be 28.7% and the percent response (vesicle binding) turned out to be 319%. Further, the double positive events under setting [1] turned out to be 28.7%.

Under “at 7.7 µM”, `CN(C)CCNc1oc(-c2ccccc2Cl)nc1S(=O)(=O)c1ccccc1` returned a double positive events of 17.2% and a percent response (vesicle binding) of 569%. Moreover, under setting [1], the double positive events was determined as 29.5%.

Where the note is “at 7.7 µM”, `CCc1noc(C)c1C(=O)Oc1ccc(N(C)S(=O)(=O)c2ccccc2)cc1` showed a double positive events of 12.4% and a percent response (vesicle binding) of 162%. This compound also registered a double positive events under setting [1] of 32.1%.

On to `COc1ccccc1NC(=O)CSc1nnc(Cc2cccn2C)n1-c1ccc(F)cc1`, for which the double positive events reads like this: (at 7.7 µM) 13.9%; under setting [1], 16.3%. Besides, the percent response (vesicle binding) (at 7.7 µM) was 273%.

On to `CCOC(=O)c1[nH]c(C)c(C(=O)N(CC)CC)c1C`, for which, for the setting “at 7.7 µM”, the double positive events was determined as 9.3% and the percent response (vesicle binding) turned out to be 175%. For the same compound, the double positive events under setting [1] is 10.8%.

For `CCCCN1C(=O)NC(NC(=O)C2CC2)(C(F)(F)F)C1=O` (centres undefined), the double positive events (at 7.7 µM) is 3.3% and the double positive events under setting [1] was determined as 14.6%. Further, the percent response (vesicle binding) (at 7.7 µM) was 71.3%.

For `CC1CCC(NC(=O)CN2C(=O)NC3(CCCCCC3)C2=O)CC1` (centres undefined), where the note is “at 7.7 µM”, the double positive events is 12.3% and the percent response (vesicle binding) was determined as 303%. The double positive events under setting [1] amounted to 31.7%.

In the case of `COc1ccc(CCNS(=O)(=O)c2ccc(S(=O)(=O)N3CCCC3)cc2)cc1OC`, where the note is “at 7.7 µM”, the double positive events was 15% and the percent response (vesicle binding) is 183%. Under setting [1], this compound showed a double positive events of 23%.

Take `COc1ccc(OC)c(NC(=O)CCN2CCCCC2)c1`: the double positive events is 29.4% (at 7.7 µM) and 27.5% under setting [1]. The compound further came in with a percent response (vesicle binding) (at 7.7 µM) of 442%.

Take `Cc1nnc(Cl)c2nn(-c3ccccc3F)c(C)c12`: under “at 7.7 µM”, the double positive events worked out at 10.2% and the percent response (vesicle binding) is 150%. Moreover, the double positive events under setting [1] came out at 7.4%.

As for `CCSc1nnc(NC(=O)CSc2sc3c(O)cc(=O)[nH]c3c2C#N)s1`, the double positive events (at 7.7 µM) came to 8.5% and the double positive events under setting [1] was 31.7%. Further, the percent response (vesicle binding) (at 7.7 µM) was 210%.

Take `O=C(NCCOc1ccccc1Cl)c1cccc2c1C(=O)c1ccc(Cl)cc1S2(=O)=O`: the double positive events reads like this: (at 7.7 µM) 16.7%; under setting [1], 15.2%. For the setting “at 7.7 µM”, this compound returned a percent response (vesicle binding) of 193%.

With `Cc1cccc(N2C(=O)CCC2=O)c1`, for the setting “at 7.7 µM”, the double positive events worked out at 11.4% and the percent response (vesicle binding) was found to be 170%. Under setting [1], this compound yielded a double positive events of 17.2%.

Compound `Cc1cccc(-n2ncc3c(N4CCCC4)ncnc32)c1` registered a double positive events (at 7.7 µM) of 44.5% and a double positive events under setting [1] of 15.3%. The compound further gave a percent response (vesicle binding) (at 7.7 µM) of 619%.

For the setting “at 7.7 µM”, `CCC1(c2ccccc2)NC(=O)N(CC(=O)Nc2cc(Cl)ccc2N2CCN(C)CC2)C1=O` (centres undefined) yielded a double positive events of 11.6% and a percent response (vesicle binding) of 475%. This compound displayed a double positive events under setting [1] of 18.5%.

`COc1ccc(S(=O)(=O)N(C)C2(C)CCS(=O)(=O)C2)cc1OC` (centres undefined): under “at 7.7 µM”, the double positive events stood at 10.4% and the percent response (vesicle binding) came out at 423%. For the same compound, the double positive events under setting [1] was determined as 17.4%.

As to `NS(=O)(=O)c1ccc(NC(=O)NC2CCCCC2)cc1`, the double positive events came to 11.8% (at 7.7 µM) and 43.8% under setting [1]. In addition, where the note is “at 7.7 µM”, the percent response (vesicle binding) is 232%.

As for `COc1ccc(SC[C@H](C)CN2CC[C@H](C(C)(C)C)CCC2=O)cc1`, where the note is “at 7.7 µM”, the double positive events was found to be 24.2% and the percent response (vesicle binding) came to 379%. The compound further registered a double positive events under setting [1] of 21.8%.
